# Reference: PubChem BioAssay AID743255 (National Center for Advancing Translational Sciences (NCATS), 2014)
# Sequences of proteins named here, by UniProt entry; tags and fusion partners are left off. A change or cut given only in a name is not applied to a line headed by its entry.
# UniProt O94782: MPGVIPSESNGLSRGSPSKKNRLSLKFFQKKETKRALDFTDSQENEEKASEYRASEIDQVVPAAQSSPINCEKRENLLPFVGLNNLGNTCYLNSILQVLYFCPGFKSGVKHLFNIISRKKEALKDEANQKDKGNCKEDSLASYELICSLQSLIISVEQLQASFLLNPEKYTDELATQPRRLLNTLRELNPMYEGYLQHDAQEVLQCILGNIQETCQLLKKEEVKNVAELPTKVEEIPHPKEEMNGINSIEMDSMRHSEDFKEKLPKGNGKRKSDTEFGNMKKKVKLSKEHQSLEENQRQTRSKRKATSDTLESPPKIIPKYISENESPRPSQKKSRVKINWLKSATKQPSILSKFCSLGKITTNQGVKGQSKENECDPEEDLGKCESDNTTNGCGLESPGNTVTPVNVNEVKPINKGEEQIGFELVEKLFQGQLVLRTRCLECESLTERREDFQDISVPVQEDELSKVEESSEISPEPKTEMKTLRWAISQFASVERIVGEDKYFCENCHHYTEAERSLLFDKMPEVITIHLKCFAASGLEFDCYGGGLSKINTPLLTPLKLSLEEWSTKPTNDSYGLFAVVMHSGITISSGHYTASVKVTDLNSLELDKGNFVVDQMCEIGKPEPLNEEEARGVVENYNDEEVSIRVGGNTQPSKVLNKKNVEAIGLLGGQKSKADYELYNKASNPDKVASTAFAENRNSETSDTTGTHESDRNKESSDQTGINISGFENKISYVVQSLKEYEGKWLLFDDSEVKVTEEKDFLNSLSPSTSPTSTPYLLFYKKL
# The whole screen tested about 390,000 compounds, of which about 910 (0.23%) were called active. Inconclusive results, whose numbers are uncertain, are shown with a selection of clear calls. Calls follow the shape of the dose curve; as a rule, active = well fitted inhibition curve with a large enough effect; inconclusive = small, poorly fitted or top-dose-only effect; inactive = no such curve, though single readings can be large or run the other way. Potencies of inconclusive entries are doubtful fits and often do not repeat.
# Biological target: Ubiquitin carboxyl-terminal hydrolase 1 (Homo sapiens) (UniProt O94782)
# Test: Inhibitors of USP1/UAF1: Primary Screen; also: nearly all actives have a fitted effect of over 60% in size
# Conditions: recombinant USP1/UAF1, Ub-Rhodamine cleavage fluorescence; series mostly up to 57.1 µM
# Outline: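 USP1/UAF1 complex at 1 nM was preincubated with compound for 15 min at room temperature, then Ub-Rho substrate (150nM final) was added. Fluorescence (480/540 nm) was read kinetically, 6 reads every 60 seconds.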
# Potency is read from the fitted curve at half-maximal effect.
row,Structure (SMILES),Potency
1,COc1ccc(NC(=O)CCNC(=O)Cn2cnc3sc4c(c3c2=O)CCCC4)c(OC)c1,"inconclusive: 6.31 µM [inhibitor, single point]"
2,Cc1ccc(C)c(S(=O)(=O)n2nc(C)c(S(=O)(=O)N3CCC(C)CC3)c2C)c1,"inconclusive: 1.41 µM [inhibitor, full curve, poor fit]"
3,CC(=O)Nc1ccc(Nc2nc(-c3cc4ccccc4oc3=O)cs2)cc1,"inconclusive: 50.1 µM [inhibitor, partial curve, poor fit]"
4,CCOc1ccc(C2=C(C(=O)CC)Sc3nncn3N2C(=O)CC)cc1,"inconclusive: 35.5 µM [inhibitor, partial curve]"
5,Cc1ccc(-c2nnn(CCC(=O)N3CCCCC3C)n2)cc1 (stereo not given),"inconclusive: 35.5 µM [inhibitor, single point]"
6,CCCC[C@@H]1CNC(=O)C(=O)N1CCCc1cc(OC)c(OC)c(OC)c1,"inconclusive: 50.1 µM [inhibitor, partial curve, poor fit]"
7,CSc1nc(/C=C2\C=Nc3ccccc32)c(O)n1C,inactive
8,Nc1cccc(N2C(=O)c3cccc4c(N)ccc(c34)C2=O)c1,active: 28.2 µM
9,Cc1ccc(S(=O)(=O)N(C)C)cc1NC(=S)Nc1cccc2ccccc12,"inconclusive: 44.7 µM [inhibitor, partial curve, poor fit]"
10,N#C/C(=C/c1ccc(-c2ccccc2[N+](=O)[O-])o1)C(N)=O,inactive
11,CCOC(=O)C(NC(=O)Nc1ccc(O)cc1)(c1ccccc1)C(F)(F)F (stereo not given),inactive
12,COc1cc(C2CC(=O)N3CN(Cc4ccccc4)CSC3=C2C#N)ccc1OCc1ccccc1 (stereo not given),"inconclusive: 5.62 µM [inhibitor, full curve, poor fit]"
13,Cc1nnc(-c2cccc(Br)c2)c2cn(-c3cccc(Br)c3)nc12,inactive
14,Cn1c(=O)c2cc(S(=O)(=O)N3CCC(c4ccccc4)CC3)ccc2n(C)c1=O,"inconclusive: 0.398 µM [inhibitor, full curve, poor fit]"
15,COc1ccc(-c2csc(NC(=O)c3ccc(S(=O)(=O)N4CCc5ccccc5C4)cc3)n2)c(OC)c1,inactive
16,O=C(CCCSc1ccccc1)Nc1nc(-c2ccccn2)cs1,"inconclusive: 11.2 µM [inhibitor, partial curve]"
17,O=C(Nc1cccc(NC(=O)c2c(F)cccc2F)n1)c1c(F)cccc1F,"inconclusive: 8.91 µM [inhibitor, single point]"
18,c1ccc(CSc2nc3ncncc3[nH]2)cc1,"inconclusive: 44.7 µM [inhibitor, partial curve, poor fit]"
19,Nc1cc(S(=O)(=O)N2CCOCC2)ccc1N1CCCCC1,inactive
20,CCOc1ccc(CNC(=O)Cn2cc3c(n2)-c2c(oc(C(=O)N4CCCC4)c2C)CC3)cc1,"inconclusive: 44.7 µM [inhibitor, single point]"
21,COc1ccc(NCc2cc3cc4c(cc3n(CC(=O)Nc3ccccc3)c2=O)OCO4)cc1,inactive
22,COc1ccc(O)c(/C=C(\C#N)C(=O)Nc2cccnc2)c1,"inconclusive: 31.6 µM [inhibitor, partial curve]"

row,Structure (SMILES),Potency
1,C[C@@H]1CN([C@H](C)CO)C(=O)CCCn2nncc2CO[C@H]1CN(C)Cc1ccc(C(=O)O)cc1,"inconclusive: 0.447 µM [inhibitor, full curve]"
2,COc1ccc(-c2nc3c4ccccc4n(CC(=O)Nc4cc(F)ccc4F)c(=O)n3n2)cc1,inactive
3,Cc1ccc(NC(=O)CN2C(=O)S/C(=C/c3ccc(O)c([N+](=O)[O-])c3)C2=O)cc1C,inactive
4,COc1ccc(CCNC(=O)C2(c3cccs3)CCOCC2)cc1OC,"inconclusive: 56.2 µM [inhibitor, partial curve, poor fit]"
5,O=C(N/N=C/c1c(O)n(-c2ccc(Cl)cn2)c(=O)c2ccccc12)c1ccncc1,"inconclusive: 31.6 µM [inhibitor, partial curve]"
6,CN(Cc1ccco1)C(=O)CN1C(=O)NC2(CCCC2)C1=O,"inconclusive: 0.562 µM [inhibitor, full curve, poor fit]"
7,O=C1NCCCN1Cc1ccc(Cl)cc1,"inconclusive: 0.631 µM [inhibitor, full curve, poor fit]"
8,CC1(C(=O)NCCN2CCOCC2)C=CCN1C(=O)c1ccccc1 (stereo not given),"inconclusive: 0.251 µM [inhibitor, full curve, poor fit]"
9,CCOc1ccc(NC(=O)C2CCN(S(=O)(=O)c3ccc4c(c3)C(C)(C)C(=O)N4C)CC2)cc1,"inconclusive: 0.708 µM [inhibitor, full curve, poor fit]"
10,Cn1nc(C(C)(C)C)c(NC(=O)c2cccs2)c1C(C)(C)C,inactive
11,COc1ccc(N2CCN(S(=O)(=O)CCNC(=O)Cc3ccc(Cl)cc3)CC2)cc1,"inconclusive: 0.282 µM [inhibitor, full curve, poor fit]"
12,Cc1ccc([C@@H]2CC=C(C(=O)O)[C@H](c3ccc(C(C)(C)C)cc3)N2S(=O)(=O)c2ccc(C)cc2)cc1,"inconclusive: 50.1 µM [inhibitor, partial curve, poor fit]"
13,COc1cc(C(=O)NCC(c2cccnc2)N2CCc3ccccc32)cc(OC)c1OC (stereo not given),inactive
14,c1ccc2c(c1)CCN(CCCNc1nc3ccccc3n3cnnc13)C2,"inconclusive: 0.794 µM [inhibitor, full curve, poor fit]"
15,CCOC(=O)c1c(NC(=O)c2nc(SC(C)C)ncc2Cl)sc2c1CCCC2,"inconclusive: 8.91 µM [inhibitor, partial curve, poor fit]"
16,CCOc1cc(N2CCOCC2)c(OCC)cc1NC(=S)NCCCOC,"inconclusive: 28.2 µM [inhibitor, single point]"
17,Cc1cccc(C2CC(c3ccc(Cl)cc3)Nc3nc(N)nn32)c1 (stereo not given),"inconclusive: 17.8 µM [inhibitor, partial curve]"
18,COc1ccccc1N=Cc1c(C)c(C#N)c2[nH]c3ccccc3n2c1=O,"inconclusive: 28.2 µM [inhibitor, partial curve]"
19,CC1CCCCN1CC(O)COCc1ccccc1 (stereo not given),"inconclusive: 0.891 µM [inhibitor, full curve, poor fit]"
20,COc1cc2c(cc1OC)C(COc1ccc3c(C)cc(=O)oc3c1)N(C(=O)c1ccc(Cl)cc1)CC2 (stereo not given),"inconclusive: 63.1 µM [inhibitor, partial curve, poor fit]"
21,COc1ccccc1-c1n[nH]nc1C1=CC(=O)CC(C)(C)C1,"inconclusive: 50.1 µM [inhibitor, partial curve, poor fit]"
22,CCN(CC)C(=O)Cn1c(=O)n(Cc2ccc(C(=O)NCc3ccccc3Cl)cc2)c(=O)c2ccccc21,inactive

# Three records picked at random from those above, as already listed:
row,Structure (SMILES),Potency
11,COc1ccc(N2CCN(S(=O)(=O)CCNC(=O)Cc3ccc(Cl)cc3)CC2)cc1,"inconclusive: 0.282 µM [inhibitor, full curve, poor fit]"
21,COc1ccccc1-c1n[nH]nc1C1=CC(=O)CC(C)(C)C1,"inconclusive: 50.1 µM [inhibitor, partial curve, poor fit]"
5,O=C(N/N=C/c1c(O)n(-c2ccc(Cl)cn2)c(=O)c2ccccc12)c1ccncc1,"inconclusive: 31.6 µM [inhibitor, partial curve]"

# (more compounds)

row,Structure (SMILES),Potency
1,O=[N+]([O-])c1ccc(/C=N/NC2=NS(=O)(=O)c3ccccc32)cc1,inactive
2,COc1ccccc1CNC(=O)c1oc2ccc(S(=O)(=O)N3CCCCC3)cc2c1C,"inconclusive: 7.94 µM [inhibitor, partial curve, poor fit]"
3,CCN(c1cccc2ccccc12)S(=O)(=O)c1cccs1,"inconclusive: 44.7 µM [inhibitor, single point]"
4,O=C(COC(=O)c1ccccc1)c1ccc(Br)cc1,"inconclusive: 3.16 µM [inhibitor, partial curve]"
5,C=CCNC(=O)C(=O)NN=C1CCN(C)CC1,"inconclusive: 44.7 µM [inhibitor, partial curve]"
6,CCOc1ccc(NC(=O)CSc2nccn2Cc2ccco2)cc1,"inconclusive: 7.08 µM [inhibitor, full curve, poor fit]"
7,O/C(=C\c1ccc2ccccc2n1)c1ccncc1,"inconclusive: 39.8 µM [inhibitor, partial curve]"
8,Nc1ccc(-c2nc3ncccc3o2)cc1,inactive
9,Cc1ccc(OCCn2cc(/C=C/C(=O)O)c3ccccc32)cc1,"inconclusive: 8.91 µM [inhibitor, full curve, poor fit]"
10,CN1CCN(CC(=O)Nc2cccc([N+](=O)[O-])c2)CC1,"inconclusive: 5.01 µM [inhibitor, partial curve]"
11,C/C(=N/Nc1ccnc2cc(Cl)ccc12)c1ccc(O)cc1,inactive
12,CC1=CN2C(=N)/C(=C/c3ccc(Sc4ccc(Cl)cc4)o3)C(=O)N=C2S1,inactive
13,CCc1cc(C(=O)Nc2cc(S(=O)(=O)N3CCCCC3)ccc2N2CCN(C)CC2)sc1C,inactive
14,COC(=O)C1=C(Nc2ccccc2NS(=O)(=O)c2ccc(C(F)(F)F)cc2Cl)CSC1,"inconclusive: 2 µM [inhibitor, full curve]"
15,CC(=O)N1CCN(c2csc3ccc(F)cc3c2=O)CC1,"inconclusive: 5.62 µM [inhibitor, full curve, poor fit]"
16,CC1=C(C(=O)N(C)C)CC(CC(=O)NCc2cccc3ccccc23)C(=O)N1CCCN1CCCC1=O (stereo not given),"inconclusive: 0.355 µM [inhibitor, full curve, poor fit]"
17,Cc1ccccc1NC(=O)CSc1nc(-c2ccccc2C)nc2cc(=O)[nH]n12,"inconclusive: 0.251 µM [inhibitor, full curve, poor fit]"
18,CCc1ccccc1NC(=O)c1ccc(CN2CCC(Cc3ccccc3)CC2)cc1,inactive
19,COc1ccc(C(CNC(=O)C(C)c2ccc3cc(OC)ccc3c2)N(C)C)cc1 (stereo not given),"inconclusive: 31.6 µM [inhibitor, single point]"
20,COCCn1cnc2c1c(=O)n(Cc1c(F)cccc1Cl)c(=O)n2Cc1ccccc1,"inconclusive: 14.1 µM [inhibitor, single point]"
21,O=C(C[C@H]1C[C@H](C(=O)N2CCCCC2)[C@@]2(CCc3ccccc3)c3[nH]c4ccc(Cl)cc4c3CCN2C1=O)NCCCn1ccnc1,"inconclusive: 70.8 µM [inhibitor, partial curve, poor fit]"
